We go through 1 sequence from publication PMC8319299.

The test system of this series is PRC2 core (EZH2-EED-SUZ12-RBBP4) (Homo sapiens). The experiment in a line: fluorescence anisotropy. To be noted: 50 mM Tris-HCl pH 7.5 (25 C), 100 mM KCl, 2 mM 2-mercaptoethanol, 0.1 mg/mL BSA, 0.05% NP-40; FA at 30 C; recombinant protein; protein details: His6-MBP (PreScission-cleavable); label: 3'-fluorescein; folded or branched DNA. (In general: Polarisation of emitted light reports the rotation of a fluorescent probe.)

One may read the Kd as a measure of binding affinity in units of concentration.

With “GGCGCCCTGCCCCGCCTCGCTCTGGCAGAGTGGGGAGCCAGCCGGCGCTAGCCGGCTGGCTCCCCACTCTGCCAGAGCGAGGCGGGGCAGGGCGCC [CpG46]”, the Kd was greater than 4 µM.
